The supplement of paper PMC10849652
The other results are listed elsewhere or left out.

Protein sequences, listed by entry. Tags and fused reporters are not part of them. Lines headed by an entry give the natural chain unless they say otherwise; changes in a name come on top.
UniProt P21675, whole entry, looked up: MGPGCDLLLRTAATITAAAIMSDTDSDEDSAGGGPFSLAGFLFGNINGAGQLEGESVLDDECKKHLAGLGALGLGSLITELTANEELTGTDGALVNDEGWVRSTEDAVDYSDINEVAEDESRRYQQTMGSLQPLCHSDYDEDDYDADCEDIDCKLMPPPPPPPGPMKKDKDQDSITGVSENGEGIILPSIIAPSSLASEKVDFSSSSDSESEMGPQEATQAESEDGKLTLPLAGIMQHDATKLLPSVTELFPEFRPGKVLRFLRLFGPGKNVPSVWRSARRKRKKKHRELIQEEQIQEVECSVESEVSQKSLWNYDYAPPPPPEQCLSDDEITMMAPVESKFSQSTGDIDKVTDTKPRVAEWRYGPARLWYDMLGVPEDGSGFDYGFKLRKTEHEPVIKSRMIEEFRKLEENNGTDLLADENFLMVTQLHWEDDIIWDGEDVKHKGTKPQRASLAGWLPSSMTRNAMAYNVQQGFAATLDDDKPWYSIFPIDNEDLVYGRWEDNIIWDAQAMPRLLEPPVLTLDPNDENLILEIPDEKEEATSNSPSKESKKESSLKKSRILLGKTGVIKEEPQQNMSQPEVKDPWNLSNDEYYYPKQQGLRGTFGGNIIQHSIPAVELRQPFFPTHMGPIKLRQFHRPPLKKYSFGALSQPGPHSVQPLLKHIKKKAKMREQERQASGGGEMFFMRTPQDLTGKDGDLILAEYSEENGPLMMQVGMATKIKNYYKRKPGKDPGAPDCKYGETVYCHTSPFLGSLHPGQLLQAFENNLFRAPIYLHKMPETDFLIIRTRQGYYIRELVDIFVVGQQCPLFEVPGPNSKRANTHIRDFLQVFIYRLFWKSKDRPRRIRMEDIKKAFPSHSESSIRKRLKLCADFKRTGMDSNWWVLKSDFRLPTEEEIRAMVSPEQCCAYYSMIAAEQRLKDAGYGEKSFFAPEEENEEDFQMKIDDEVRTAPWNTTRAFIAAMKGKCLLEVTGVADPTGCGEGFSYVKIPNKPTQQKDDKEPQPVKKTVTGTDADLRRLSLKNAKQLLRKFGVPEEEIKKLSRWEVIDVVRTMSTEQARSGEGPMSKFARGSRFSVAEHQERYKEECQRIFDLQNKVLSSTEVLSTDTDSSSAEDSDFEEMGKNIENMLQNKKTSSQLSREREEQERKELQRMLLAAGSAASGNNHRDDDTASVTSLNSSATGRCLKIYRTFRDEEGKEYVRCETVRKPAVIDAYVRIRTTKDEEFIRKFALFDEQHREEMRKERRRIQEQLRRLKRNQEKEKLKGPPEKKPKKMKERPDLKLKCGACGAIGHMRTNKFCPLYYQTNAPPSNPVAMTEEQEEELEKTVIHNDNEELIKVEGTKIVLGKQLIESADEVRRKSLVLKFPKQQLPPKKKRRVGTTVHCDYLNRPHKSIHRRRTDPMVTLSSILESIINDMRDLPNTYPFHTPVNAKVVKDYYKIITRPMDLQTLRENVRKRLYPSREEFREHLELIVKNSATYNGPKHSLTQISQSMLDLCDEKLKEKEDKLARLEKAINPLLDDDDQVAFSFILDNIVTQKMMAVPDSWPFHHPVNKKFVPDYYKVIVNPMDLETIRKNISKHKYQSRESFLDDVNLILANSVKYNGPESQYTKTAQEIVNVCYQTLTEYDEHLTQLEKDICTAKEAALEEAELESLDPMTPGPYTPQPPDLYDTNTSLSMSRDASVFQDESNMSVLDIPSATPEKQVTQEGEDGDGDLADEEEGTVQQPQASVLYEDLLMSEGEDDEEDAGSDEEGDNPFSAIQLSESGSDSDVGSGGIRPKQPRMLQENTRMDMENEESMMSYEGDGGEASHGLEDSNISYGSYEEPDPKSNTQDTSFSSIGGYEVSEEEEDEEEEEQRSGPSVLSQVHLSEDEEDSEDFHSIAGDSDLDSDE
UniProt P27105: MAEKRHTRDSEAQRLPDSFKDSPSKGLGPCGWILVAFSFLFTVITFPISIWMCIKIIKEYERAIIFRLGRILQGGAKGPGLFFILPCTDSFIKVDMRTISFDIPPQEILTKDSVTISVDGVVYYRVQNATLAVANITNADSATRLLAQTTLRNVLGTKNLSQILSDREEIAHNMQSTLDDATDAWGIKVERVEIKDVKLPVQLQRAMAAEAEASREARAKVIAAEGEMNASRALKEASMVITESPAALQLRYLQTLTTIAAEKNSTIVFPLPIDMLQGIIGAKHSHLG
UniProt P16949: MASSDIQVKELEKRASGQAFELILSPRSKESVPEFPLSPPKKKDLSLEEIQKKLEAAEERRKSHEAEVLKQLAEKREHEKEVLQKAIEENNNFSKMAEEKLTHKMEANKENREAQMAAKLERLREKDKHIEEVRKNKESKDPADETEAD
UniProt P49848, whole entry, looked up: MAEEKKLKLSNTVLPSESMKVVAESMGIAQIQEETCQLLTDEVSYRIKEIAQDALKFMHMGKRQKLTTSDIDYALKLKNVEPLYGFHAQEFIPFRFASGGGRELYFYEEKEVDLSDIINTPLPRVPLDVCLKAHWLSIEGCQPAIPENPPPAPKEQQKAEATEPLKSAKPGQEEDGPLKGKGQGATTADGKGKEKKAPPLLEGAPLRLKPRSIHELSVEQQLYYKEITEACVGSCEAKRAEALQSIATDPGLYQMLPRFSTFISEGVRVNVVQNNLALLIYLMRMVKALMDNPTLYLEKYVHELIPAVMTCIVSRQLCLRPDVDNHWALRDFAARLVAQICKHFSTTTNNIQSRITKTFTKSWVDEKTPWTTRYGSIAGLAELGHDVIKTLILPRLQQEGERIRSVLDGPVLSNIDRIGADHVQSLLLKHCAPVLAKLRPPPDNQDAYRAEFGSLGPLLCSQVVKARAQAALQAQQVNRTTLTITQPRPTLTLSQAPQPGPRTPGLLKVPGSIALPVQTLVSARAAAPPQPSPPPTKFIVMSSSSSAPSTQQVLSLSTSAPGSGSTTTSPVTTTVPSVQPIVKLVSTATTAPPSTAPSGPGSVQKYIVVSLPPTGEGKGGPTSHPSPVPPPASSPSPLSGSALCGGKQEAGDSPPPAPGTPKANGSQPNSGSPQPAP
UniProt Q8WUJ0: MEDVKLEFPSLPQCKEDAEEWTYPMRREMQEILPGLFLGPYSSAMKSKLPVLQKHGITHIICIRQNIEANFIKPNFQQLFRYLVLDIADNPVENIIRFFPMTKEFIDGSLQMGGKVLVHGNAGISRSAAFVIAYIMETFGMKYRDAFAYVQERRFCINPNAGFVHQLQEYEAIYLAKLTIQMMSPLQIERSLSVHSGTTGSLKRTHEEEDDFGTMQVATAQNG
UniProt Q15543, whole entry, looked up: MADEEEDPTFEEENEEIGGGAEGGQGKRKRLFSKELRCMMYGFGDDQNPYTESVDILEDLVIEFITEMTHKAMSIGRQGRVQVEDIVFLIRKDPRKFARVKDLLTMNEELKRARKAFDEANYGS
UniProt Q16563: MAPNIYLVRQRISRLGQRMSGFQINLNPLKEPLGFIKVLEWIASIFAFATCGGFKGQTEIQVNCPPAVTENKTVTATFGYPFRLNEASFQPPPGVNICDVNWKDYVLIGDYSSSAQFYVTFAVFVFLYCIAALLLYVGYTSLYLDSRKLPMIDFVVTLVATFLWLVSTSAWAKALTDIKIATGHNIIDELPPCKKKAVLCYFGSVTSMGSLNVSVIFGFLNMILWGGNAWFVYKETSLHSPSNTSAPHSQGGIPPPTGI
UniProt Q9HAC7: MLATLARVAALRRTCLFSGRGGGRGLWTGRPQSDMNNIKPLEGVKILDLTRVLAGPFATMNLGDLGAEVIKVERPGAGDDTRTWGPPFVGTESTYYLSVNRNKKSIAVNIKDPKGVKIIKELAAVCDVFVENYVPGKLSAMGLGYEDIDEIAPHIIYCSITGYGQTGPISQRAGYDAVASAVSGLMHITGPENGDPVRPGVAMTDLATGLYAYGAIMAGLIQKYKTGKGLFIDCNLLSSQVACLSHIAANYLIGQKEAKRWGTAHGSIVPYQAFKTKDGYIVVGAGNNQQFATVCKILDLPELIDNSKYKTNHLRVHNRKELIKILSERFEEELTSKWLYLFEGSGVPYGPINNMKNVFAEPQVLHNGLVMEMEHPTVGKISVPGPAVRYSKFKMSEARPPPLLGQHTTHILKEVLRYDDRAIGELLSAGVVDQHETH

What was measured:
Assay in all cases: log2 fold change, soluble protein after heating vs DMSO (PISA); higher = thermal stabilisation; K562 lysate, 10 uM; active = over 0.2 and 3.5 SD of the protein, either way, in both replicates (recomputed)
erlotinib = compound: C#Cc1cccc(Nc2ncnc3cc(OCCOC)c(OCCOC)cc23)c1 [erlotinib]
Method in brief: (§1)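 Thermal stability, expressed as log-two fold change relative to solvent controls, is given from duplicates. Crude K562 extract in PBS pH 7.4 with 1 mM MgCl2, at 1 mg/mL protein, was treated with 10 μM compound for 30 min and heated in aliquots for 3 min across 48°C-58°C. After pooling, adjustment to 0.5% NP-40 at 4°C and centrifugation at 21,000xg for 90 min, supernatant protein was measured by TMTpro 16plex LC-MS/MS with channel sums equalised.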

[1] = compound: C/C(=N\NC(=O)C1=CC(=CC=C1)S(=O)(=O)N2CCOCC2)/C3=C(C=CC(=C3)Cl)O
Method in brief: as §1

[2] = compound: C1=CC(=CC=C1C2=NC3=C(N2)C=C(C=C3)C(=O)N)OC4=CC=C(C=C4)Cl
Method in brief: as §1

[3] = compound: C1=CC2=C(C=CC(=C2)/C=C\3/C(=O)NC(=NCC4=CC=CS4)S3)N=C1
Method in brief: as §1

[4] = compound: C1=CC=C(C=C1)C2=NC(=C(N2)C3=CC=NC=C3)C4=CC(=C(C=C4)Cl)O
Method in brief: as §1

[5] = compound: C1=CC=C2C(=C1)C3=NNC4=CC=CC(=C43)C2=O
Method in brief: as §1

[6] = compound: C1CCN(C1)C(=O)NC2=CC=CC(=C2)NC3=NC=C(C(=N3)NCCC4=CN=CN4)Br
Method in brief: as §1

[7] = compound: C1CN(CCC1(CC2=CC=C(C=C2)Cl)N)C3=NC=NC4=C3C=CN4
Method in brief: as §1

IRAK-1-4 Inhibitor I = compound: C1COCCN1CCN2C3=CC=CC=C3N=C2NC(=O)C4=CC(=CC=C4)[N+](=O)[O-] [IRAK-1-4 Inhibitor I]
Method in brief: as §1

[8] = compound: CC(=O)c1cnc2ccc(-c3cc(Cl)c(O)c(Cl)c3)nc2c1N[C@H]1CC[C@H](CN(C)C)CC1
Method in brief: as §1

ralimetinib = compound: CC(C)(C)Cn1c(N)nc2ccc(-c3[nH]c(C(C)(C)C)nc3-c3ccc(F)cc3)nc21 [ralimetinib]
Method in brief: as §1

[9] = compound: CC(C)(O)CC(=O)NCCn1ccc2ncnc(Nc3ccc(Oc4cccc(C(F)(F)F)c4)c(Cl)c3)c21
Method in brief: as §1

[10] = compound: CC(C)C1=C2N=C(C=C(N2N=C1)NCC3=CC=CC=C3)NCCCCCCN
Method in brief: as §1

[11] = compound: CC1=C(C(CC(=O)N1)C2=CC=C(C=C2)C(F)(F)F)C(=O)NC3=C(C=C4C(=C3)C=NN4)F
Method in brief: as §1

[12] = compound: CC1=C(C2=C(C=C1)C(=O)C3=CC=CC=C3N2CCCN)C
Method in brief: as §1

[13] = compound: CC1=C(C=C(C=C1)NC(=O)C2=CC(=CC=C2)C(C)(C)C#N)NC3=CC4=C(C=C3)N=CN(C4=O)C
Method in brief: as §1

[14] = compound: CC1=C(C=C(C=C1)NC(=O)C2=CC(=CC=C2)N(C)C)NC(=O)C3=CC=C(C=C3)O
Method in brief: as §1

[15] = compound: CC1=CC=C(C=C1)SC2=C3C=C(SC3=CN=C2)C(=O)N
Method in brief: as §1

[16] = compound: C1=CC2=NC=CN=C2C=C1/C=C/3\C(=O)NC(=O)S3
Method in brief: as §1

ibrutinib = compound: C=CC(=O)N1CCC[C@@H](n2nc(-c3ccc(Oc4ccccc4)cc3)c3c(N)ncnc32)C1 [ibrutinib]
Method in brief: as §1

Measured: log2 fold change

TAF1 isoform 4 (UniProt P21675)
inactive: erlotinib 0.011 | [1] 0.083 | [2] -0.029 | [3] -0.055 | [4] 0.028 | [5] -0.011 | [6] 0.012 | [7] -0.024 | IRAK-1-4 Inhibitor I -0.036 | [8] -0.008 | ralimetinib 0.052 | [9] 0.078 | [10] -0.019 | [11] -0.157 | [12] -0.039 | [13] 0.014 | [14] 0.004 | [15] 0.122

STOM (UniProt P27105)
inactive: erlotinib -0.022 | [1] 0.07 | [2] 0.007 | [3] -0.034 | [16] 0.04 | [4] 0.005 | [5] -0.001 | [6] 0.051 | [7] -0.006 | IRAK-1-4 Inhibitor I 0.007 | ibrutinib 0.003 | [8] -0.01 | ralimetinib -0.015 | [9] -0.044 | [10] -0.023 | [11] 0.012 | [12] -0.055 | [13] -0.047 | [14] 0.006 | [15] -0.005

STMN1 (UniProt P16949)
inactive: erlotinib -0.057 | [1] -0.012 | [2] -0.001 | [3] -0.025 | [16] -0.018 | [4] 0.012 | [5] 0.031 | [6] 0.016 | [7] -0.005 | IRAK-1-4 Inhibitor I 0.003 | ibrutinib -0.008 | [8] 0.001 | ralimetinib -0.002 | [9] -0.025 | [10] 0.031 | [11] -0.032 | [12] -0.028 | [13] -0.015 | [14] -0.005 | [15] -0.005

TAF6 isoform 3 (UniProt P49848)
inactive: erlotinib -0.032 | [1] -0.052 | [2] 0.046 | [3] -0.031 | [16] -0.084 | [4] 0.025 | [5] -0.041 | [6] -0.078 | [7] 0.012 | IRAK-1-4 Inhibitor I -0.013 | ibrutinib -0.173 | [8] 0.038 | ralimetinib 0.032 | [9] -0.077 | [10] 0.004 | [11] -0.029 | [12] 0.013 | [13] -0.063 | [14] 0.023 | [15] 0.002

STYX (UniProt Q8WUJ0)
inactive: erlotinib 0 | [2] 0.058 | [16] 0.036 | [4] -0.022 | [6] 0.066 | [7] 0.104 | IRAK-1-4 Inhibitor I 0.025 | ibrutinib 0.016 | [8] 0.082 | ralimetinib 0 | [9] -0.05 | [10] -0.023 | [11] -0.012 | [12] 0.024 | [13] 0.033 | [14] -0.031 | [15] 0.002

TAF13 (UniProt Q15543)
inactive: erlotinib 0.015 | [1] -0.319 | [2] 0.016 | [3] -0.282 | [4] -0.048 | [5] 0.195 | IRAK-1-4 Inhibitor I 0.027 | ralimetinib -0.004 | [9] 0.016 | [10] -0.021 | [11] 0.019 | [14] 0.059

SYPL1 (UniProt Q16563)
inactive: erlotinib 0.026 | [1] -0.017 | [2] -0.014 | [3] 0.016 | [16] 0.04 | [4] 0.025 | [5] 0.002 | [6] 0.014 | [7] 0.002 | IRAK-1-4 Inhibitor I 0.032 | ibrutinib 0.015 | [8] 0.004 | ralimetinib 0.018 | [9] -0.058 | [10] 0 | [11] -0.025 | [12] -0.018 | [13] 0.007 | [14] 0.006 | [15] -0.005

SUGCT isoform 3 (UniProt Q9HAC7)
inactive: [6] -0.109 | [7] -0.072 | [12] 0.096
